{"sequences": {"note": "Chains of the proteins cited; added tags and fusions are not shown.", "UniProt P62317": "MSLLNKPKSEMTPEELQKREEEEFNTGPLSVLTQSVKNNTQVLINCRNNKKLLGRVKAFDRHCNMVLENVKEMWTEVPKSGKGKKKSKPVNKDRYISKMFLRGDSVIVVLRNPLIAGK", "UniProt Q6PDM2": "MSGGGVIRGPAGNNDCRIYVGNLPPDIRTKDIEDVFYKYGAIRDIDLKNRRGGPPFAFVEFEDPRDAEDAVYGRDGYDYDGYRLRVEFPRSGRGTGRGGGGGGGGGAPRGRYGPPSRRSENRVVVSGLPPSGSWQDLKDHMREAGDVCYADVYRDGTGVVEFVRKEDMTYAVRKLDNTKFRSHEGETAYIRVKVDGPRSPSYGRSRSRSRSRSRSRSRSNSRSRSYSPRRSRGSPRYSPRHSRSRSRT", "UniProt Q9Z204": "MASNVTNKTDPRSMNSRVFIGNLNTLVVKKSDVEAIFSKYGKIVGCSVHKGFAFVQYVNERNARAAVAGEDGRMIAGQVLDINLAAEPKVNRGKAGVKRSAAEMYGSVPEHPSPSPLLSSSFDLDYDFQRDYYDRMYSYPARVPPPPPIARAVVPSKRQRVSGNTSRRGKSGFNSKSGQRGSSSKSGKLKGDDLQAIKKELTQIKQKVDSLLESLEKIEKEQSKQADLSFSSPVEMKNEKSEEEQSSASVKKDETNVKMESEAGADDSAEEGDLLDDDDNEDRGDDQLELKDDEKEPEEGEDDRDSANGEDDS", "UniProt Q501J6": "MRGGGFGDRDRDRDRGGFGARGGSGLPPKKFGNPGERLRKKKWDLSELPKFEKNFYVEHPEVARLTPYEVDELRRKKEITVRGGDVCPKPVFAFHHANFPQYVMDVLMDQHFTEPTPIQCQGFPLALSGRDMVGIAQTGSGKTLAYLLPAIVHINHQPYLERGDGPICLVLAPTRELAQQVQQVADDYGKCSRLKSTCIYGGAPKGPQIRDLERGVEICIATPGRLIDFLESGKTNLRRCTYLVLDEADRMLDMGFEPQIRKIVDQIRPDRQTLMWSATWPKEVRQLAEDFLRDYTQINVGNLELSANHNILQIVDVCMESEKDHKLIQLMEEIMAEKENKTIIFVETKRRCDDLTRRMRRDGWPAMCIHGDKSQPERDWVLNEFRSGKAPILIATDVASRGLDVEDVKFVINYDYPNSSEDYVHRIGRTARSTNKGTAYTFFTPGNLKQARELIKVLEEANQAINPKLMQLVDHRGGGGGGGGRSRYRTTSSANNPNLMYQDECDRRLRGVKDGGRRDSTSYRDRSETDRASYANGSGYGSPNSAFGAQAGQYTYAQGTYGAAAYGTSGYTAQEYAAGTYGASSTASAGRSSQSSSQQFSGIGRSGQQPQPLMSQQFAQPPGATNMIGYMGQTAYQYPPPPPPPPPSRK", "UniProt Q9EPU0": "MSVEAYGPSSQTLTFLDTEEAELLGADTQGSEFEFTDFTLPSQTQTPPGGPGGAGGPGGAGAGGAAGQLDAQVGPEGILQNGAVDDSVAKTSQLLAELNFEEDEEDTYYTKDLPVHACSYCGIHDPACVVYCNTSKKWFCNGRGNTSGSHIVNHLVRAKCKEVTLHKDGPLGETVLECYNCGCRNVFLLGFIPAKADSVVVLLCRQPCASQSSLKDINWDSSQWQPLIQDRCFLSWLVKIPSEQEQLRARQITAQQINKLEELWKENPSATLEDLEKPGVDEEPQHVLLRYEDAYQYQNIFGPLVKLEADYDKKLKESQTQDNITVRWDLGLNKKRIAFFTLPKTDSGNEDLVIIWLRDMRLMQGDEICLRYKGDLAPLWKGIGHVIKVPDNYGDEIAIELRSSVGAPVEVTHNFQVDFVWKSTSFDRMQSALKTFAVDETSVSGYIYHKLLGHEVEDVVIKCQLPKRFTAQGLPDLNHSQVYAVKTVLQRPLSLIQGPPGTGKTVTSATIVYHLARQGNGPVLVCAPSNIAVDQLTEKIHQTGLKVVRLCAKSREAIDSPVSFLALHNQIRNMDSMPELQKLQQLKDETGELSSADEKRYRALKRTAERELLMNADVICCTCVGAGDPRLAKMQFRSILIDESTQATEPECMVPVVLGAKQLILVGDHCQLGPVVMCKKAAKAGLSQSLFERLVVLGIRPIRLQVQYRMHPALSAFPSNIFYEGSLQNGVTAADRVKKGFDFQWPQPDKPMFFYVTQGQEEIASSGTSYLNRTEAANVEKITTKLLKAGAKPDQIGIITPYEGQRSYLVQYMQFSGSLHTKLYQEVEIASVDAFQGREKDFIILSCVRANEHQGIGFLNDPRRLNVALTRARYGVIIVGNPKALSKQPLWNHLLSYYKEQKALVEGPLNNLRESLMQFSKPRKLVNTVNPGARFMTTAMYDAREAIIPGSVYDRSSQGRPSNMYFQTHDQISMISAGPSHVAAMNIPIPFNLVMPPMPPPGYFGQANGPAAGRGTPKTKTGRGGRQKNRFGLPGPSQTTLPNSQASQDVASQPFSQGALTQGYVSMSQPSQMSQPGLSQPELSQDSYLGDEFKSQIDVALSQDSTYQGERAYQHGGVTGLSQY", "UniProt P70372": "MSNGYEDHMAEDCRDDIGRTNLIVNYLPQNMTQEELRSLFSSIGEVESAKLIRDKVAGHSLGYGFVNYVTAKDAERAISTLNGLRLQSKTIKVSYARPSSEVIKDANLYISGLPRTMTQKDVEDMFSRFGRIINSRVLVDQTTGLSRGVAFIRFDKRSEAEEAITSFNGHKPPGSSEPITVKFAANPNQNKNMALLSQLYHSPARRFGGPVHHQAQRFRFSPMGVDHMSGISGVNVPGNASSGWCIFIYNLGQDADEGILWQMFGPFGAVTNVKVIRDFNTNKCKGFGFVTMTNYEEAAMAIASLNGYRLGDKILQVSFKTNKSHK", "UniProt P29341": "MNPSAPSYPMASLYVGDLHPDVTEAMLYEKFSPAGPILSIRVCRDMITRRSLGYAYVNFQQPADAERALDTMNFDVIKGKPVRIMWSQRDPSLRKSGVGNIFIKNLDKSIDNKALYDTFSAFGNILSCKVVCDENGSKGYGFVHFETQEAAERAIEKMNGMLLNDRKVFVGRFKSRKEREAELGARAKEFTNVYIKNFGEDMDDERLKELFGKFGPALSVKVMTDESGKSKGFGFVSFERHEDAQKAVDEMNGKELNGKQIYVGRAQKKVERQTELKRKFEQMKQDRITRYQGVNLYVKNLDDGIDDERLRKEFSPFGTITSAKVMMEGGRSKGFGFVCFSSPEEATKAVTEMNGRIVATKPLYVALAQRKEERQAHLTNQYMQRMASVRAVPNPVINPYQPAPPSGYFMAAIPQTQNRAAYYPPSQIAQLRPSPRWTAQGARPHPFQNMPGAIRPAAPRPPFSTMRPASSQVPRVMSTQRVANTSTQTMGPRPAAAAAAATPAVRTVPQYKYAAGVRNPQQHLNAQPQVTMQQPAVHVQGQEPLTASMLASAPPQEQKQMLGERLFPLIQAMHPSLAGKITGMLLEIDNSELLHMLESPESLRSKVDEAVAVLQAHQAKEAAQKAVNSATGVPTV"}, "source": "paper PMC6515687", "molecules": {"B1": {"name": "SYNCRIP, endogenous, P10 mouse testis (protein, UniProt Q7TMK9 1-623)", "chain": "MATEHVNGNGTEEPMDTTSAVIHSENFQTLLDAGLPQKVAEKLDEIYVAGLVAHSDLDERAIEALKEFNEDGALAVLQQFKDSDLSHVQNKSAFLCGVMKTYRQREKQGTKVADSSKGPDEAKIKALLERTGYTLDVTTGQRKYGGPPPDSVYSGQQPSVGTEIFVGKIPRDLFEDELVPLFEKAGPIWDLRLMMDPLTGLNRGYAFVTFCTKEAAQEAVKLYNNHEIRSGKHIGVCISVANNRLFVGSIPKSKTKEQILEEFSKVTEGLTDVILYHQPDDKKKNRGFCFLEYEDHKTAAQARRRLMSGKVKVWGNVGTVEWADPIEDPDPEVMAKVKVLFVRNLANTVTEEILEKSFSQFGKLERVKKLKDYAFIHFDERDGAVKAMEEMNGKDLEGENIEIVFAKPPDQKRKERKAQRQAAKNQMYDDYYYYGPPHMPPPTRGRGRGGRGGYGYPPDYYGYEDYYDYYGYDYHNYRGGYEDPYYGYEDFQVGARGRGGRGARGAAPSRGRGAAPPRGRAGYSQRGGPGSARGVRGARGGAQQQRGRGVRGARGGRGGNVGGKRKADGYNQPDTKRRQTNNQNWGSQPIAQQPLQGGDHSGNYGYKSENQEFYQDTFGQQWK"}, "B2": {"name": "SNRPA1, endogenous, P10 mouse testis (protein, UniProt P57784 1-255)", "chain": "MVKLTAELIEQAAQYTNAVRDRELDLRGYKIPVIENLGATLDQFDAIDFSDNEIRKLDGFPLLRRLKTLLVNNNRICRIGEGLDQALPCLTELILTNNSLVELGDLDPLASLKSLTYLSILRNPVTNKKHYRLYVIYKVPQVRVLDFQKVKLKERQEAEKMFKGKRGAQLAKDIARRSKTFNPGAGLPTDKKKGGPSAGDVEAIKNAIANASTLAEVERLKGLLQSGQIPGRERRSGPSDEGEEEIEDDTVTNGS"}, "B3": {"name": "DGCR8, endogenous, P10 mouse testis (protein, UniProt Q9EQM6 1-773)", "chain": "METYESPSPLPREPAGEAMMENRACPFQVLPHEQSPPPPLQTSSDAEVMDVGSGGDGQSEPPADDPFNFYGASLLSKGSFSKGRLLIDPNCSGHSPRTARHAPAVRKFSPDLKLLKDVKISVSFTESCRSKDRKVLYTGVERSTRPECGQLLSPVSGDVHACPFGGSVGNGVGLGGESADKKDEENELDQEKRVEYAVLDELEDFTDNLELDEEGTGGFTAKAIVQRDRVDEEALNFSYEDDFDNDVDALLEEGLCAPKKRRMEEKYGGDSDHPSDGETSVQPMMTKIKTVLKSRGRPPTEPLPDGWIMTFHNSGVPVYLHRESRVVTWSRPYFLGTGSIRKHDPPLSSIPCLHYKKMKDNEEREQNCDLAPSGEVSPVKPLGRSAELDFPLEEPDSMGGDSGSMDEKDPLGAEAAAGALGQVKAKVEVCKDESVDLEEFRNYLEKRFDFEQVTVKKFRTWAERRQFNREMKRKQAESERPILPANQKLITLSVQDAPTKKEFVINPNGKSEVCILHEYMQRVLKVRPVYNFFECENPSEPFGASVTIDGVTYGSGTASSKKLAKNKAARATLEILIPDFVKQTSEEKPKDSEELEYFNHISIEDSRVYELTSKAGLLSPYQILHECLKRNHGMGDTSIKFEVVPGKNQKSEYVMACGKHTVRGWCKNKRVGKQLASQKILQLLHPHVKNWGSLLRMYGRESSKMVKQETSDKSVIELQQYAKKNRPNLHILSKLQEEMKRLAAEREETRKKPKMSIVASAQPGGEPLCTVDV"}, "B4": {"name": "DROSHA, endogenous, P10 mouse testis (protein, UniProt Q5HZJ0 1-1373)", "chain": "MQGNTCHRMSYHPGRGCPRGRGGHGARPSAPAFRPQNLRLLHPQQPPAQYQYEPPSAPSSSYSNSQAPSFMPPRPDFVPYPPPAAPSAQGPLPPCPVRPPYPNHQMRHPFPVPPCFPPMPPPMPCPNNPPASGAPPGQGTFPFMVPPPSMPHPPPPPVMPQQVNYQYPPGYSHSFPPPGFNSYQNNSSSFPPSANSSSTPHFRHLPPYSLPKAQNERRSPERLKHYDDHRHRDHSHGRGERHRSLERRERGRSPERRRPESRYRSDYDRGRTPPPRHRSYERSRERDRERHRHREARRSPSLERSYKKEYKRSGRSYALPVAPEPAGCTPELPGEMIKTTESWAPPPENVNHRSPSREKKRARWEEEKDRWSDSQGSGKEKNYTSIKEKEAEEVPPEKTEEEEEELLKPVWIRCTHSESYYSSDPMDQVGDSTVVGTSRLRDLYDKFEEELGNRQEKAKAARPPWEPPKTKLDEDLESSSESECETDDDSTCSSSSDSEVFDVIAEIKRKKAHPDRLHDELWYNDPGQMNDGPLCKCSAKARRTGIRHSIYPGEEAIKPCRPMTNNAGRLFHYRITVSPPTNFLTDRPTVIEYDDHEYIFEGFSMFAHAPLTNIPLCKVIRFNIDYTIHFIEEMMPENFCVKGLELFSLFLFRDILELYDWNLKGPLFEDSPPCCPRFHFMPRFVRFLPDGGKEVLSMHQILLYLLRCSKALVPEEEIANMLQWEELEWQKYAEECKGMIVTNPGTKPSSVRIDQLDREQFNPEVITFPIIVHFGIRPAQLSYAGDPQYQKLWKSYVKLRHLLANSPKVKQTDKQKLAQREEALQKIRQKNTMRREVTVELSSQGFWKTGIRSDVCQHAMMLPVLTHHIRYHQCLMHLDKLIGYTFQDRCLLQLAMTHPSHHLNFGMNPDHARNSLSNCGIRQPKYGDRKVHHMHMRKKGINTLINIMSRLGQDDPTPSRINHNERLEFLGDAVVEFLTSVHLYYLFPSLEEGGLATYRTAIVQNQHLAMLAKKLELDRFMLYAHGPDLCRESDLRHAMANCFEALIGAVYLEGSLEEAKQLFGRLLFNDPDLREVWLNYPLHPLQLQEPNTDRQLIETSPVLQKLTEFEEAIGVIFTHVRLLARAFTLRTVGFNHLTLGHNQRMEFLGDSIMQLVATEYLFIHFPDHHEGHLTLLRSSLVNNRTQAKVAEELGMQEYAITNDKTKRPVALRTKTLADLLESFIAALYIDKDLEYVHTFMNVCFFPRLKEFILNQDWNDPKSQLQQCCLTLRTEGKEPDIPLYKTLQTVGPSHARTYTVAVYFKGERIGCGKGPSIQQAEMGAAMDALEKYNFPQMAHQKRFIERKYRQELKEMRWEREHQEREPEEAEDIKK"}}, "key": {"[1]": {"biological_target": "T1, MOV10 (Moloney leukemia virus 10), endogenous, nuclear fraction of P10 mouse testis (mouse (endogenous in P10 testis)) (UniProt P23249)", "T1 sequence": "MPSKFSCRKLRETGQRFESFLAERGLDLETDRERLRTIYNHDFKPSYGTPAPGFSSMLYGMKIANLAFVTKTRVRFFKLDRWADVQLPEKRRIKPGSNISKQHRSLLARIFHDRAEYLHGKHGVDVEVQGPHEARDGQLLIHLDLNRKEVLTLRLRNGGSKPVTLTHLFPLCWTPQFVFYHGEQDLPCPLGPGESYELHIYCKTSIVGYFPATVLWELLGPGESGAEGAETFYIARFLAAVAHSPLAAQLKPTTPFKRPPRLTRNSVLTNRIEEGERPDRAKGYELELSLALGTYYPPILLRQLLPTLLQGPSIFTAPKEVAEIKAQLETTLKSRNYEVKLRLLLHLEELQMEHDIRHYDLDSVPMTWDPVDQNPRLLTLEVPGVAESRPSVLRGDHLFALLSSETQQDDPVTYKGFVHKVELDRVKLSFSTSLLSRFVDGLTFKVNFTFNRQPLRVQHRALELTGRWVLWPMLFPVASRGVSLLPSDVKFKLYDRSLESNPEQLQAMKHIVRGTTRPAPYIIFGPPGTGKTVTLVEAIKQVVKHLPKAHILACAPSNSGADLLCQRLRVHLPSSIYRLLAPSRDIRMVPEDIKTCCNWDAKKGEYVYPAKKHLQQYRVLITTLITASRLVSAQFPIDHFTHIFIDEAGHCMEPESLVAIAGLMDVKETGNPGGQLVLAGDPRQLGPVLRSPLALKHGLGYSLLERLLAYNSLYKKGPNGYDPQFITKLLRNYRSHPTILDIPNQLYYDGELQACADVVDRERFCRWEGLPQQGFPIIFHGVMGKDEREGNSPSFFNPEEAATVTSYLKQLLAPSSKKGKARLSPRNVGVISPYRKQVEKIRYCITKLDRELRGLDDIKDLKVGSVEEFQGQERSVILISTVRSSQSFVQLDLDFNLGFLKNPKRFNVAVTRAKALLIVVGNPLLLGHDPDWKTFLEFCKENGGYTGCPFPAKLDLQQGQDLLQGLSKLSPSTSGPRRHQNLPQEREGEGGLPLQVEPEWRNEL", "test": "affinity purification with mass spectrometry; endogenous MOV10 IP (rabbit anti-MOV10, Protein A agarose, overnight 4 °C) from nuclear lysate of P10 mouse testis in RIPA buffer without RNase; rabbit IgG control; SDS-PAGE, MS"}, "[2]": {"biological_target": "T1, MOV10 (Moloney leukemia virus 10), endogenous, nuclear fraction of P10 mouse testis (mouse (endogenous in P10 testis))", "test": "affinity purification with mass spectrometry; endogenous MOV10 IP from nuclear lysate of P10 mouse testis in RIPA, CHAPS or gentle lysis buffer with 10 μg/ml RNase A/T1; proteins found in the original IP-MS and in at least one RNase-treated IP-MS"}}, "note": "These are yes or no findings as the source states them, for the method shown. Binding seen in cells or lysates may run through a third protein. These calls come from enrichment with a bait or labelling near it, and not all partners need be listed. For some of these results: No binding means not detected with the bait.", "data": [{"molecule": "SNRPD2, endogenous, P10 mouse testis (from UniProt P62317 1-118)", "values": [{"measurement": "binding", "setting": "[1]", "value": "binds"}]}, {"molecule": "SRSF1, endogenous, P10 mouse testis (from UniProt Q6PDM2 1-248)", "values": [{"measurement": "binding", "setting": "[2]", "value": "binds"}, {"measurement": "binding", "setting": "[1]", "value": "binds"}]}, {"molecule": "HNRNPC, endogenous, P10 mouse testis (from UniProt Q9Z204 1-313)", "values": [{"measurement": "binding", "setting": "[1]", "value": "binds"}]}, {"molecule": "DDX17, endogenous, P10 mouse testis (from UniProt Q501J6 1-650)", "values": [{"measurement": "binding", "setting": "[2]", "value": "binds"}, {"measurement": "binding", "setting": "[1]", "value": "binds"}]}, {"molecule": "UPF1, endogenous, P10 mouse testis (from UniProt Q9EPU0 1-1124)", "values": [{"measurement": "binding", "setting": "[1]", "value": "binds"}]}, {"molecule": "ELAVL1, endogenous, P10 mouse testis (from UniProt P70372 1-326)", "values": [{"measurement": "binding", "setting": "[1]", "value": "binds"}]}, {"molecule": "PABPC1, endogenous, P10 mouse testis (from UniProt P29341 1-636)", "values": [{"measurement": "binding", "setting": "[1]", "value": "binds"}]}, {"molecule": "B1", "values": [{"measurement": "binding", "setting": "[1]", "value": "binds"}]}, {"molecule": "B2", "values": [{"measurement": "binding", "setting": "[1]", "value": "binds"}]}, {"molecule": "B3", "values": [{"measurement": "binding", "setting": "[1]", "value": "no binding"}]}, {"molecule": "B4", "values": [{"measurement": "binding", "setting": "[1]", "value": "no binding"}]}]}
